Results taken from publication PMC4872337.
Results are given in words; binding and its absence hold for the method and conditions named. Binding seen in cells or lysates may run through a third protein. Some binding calls cover weakened binding; strength is not graded here. Tags and fused reporters may be left off the sequences shown.

Target: T1, Myc-tagged Kaiso (UniProt Q86T24)
T1 sequence: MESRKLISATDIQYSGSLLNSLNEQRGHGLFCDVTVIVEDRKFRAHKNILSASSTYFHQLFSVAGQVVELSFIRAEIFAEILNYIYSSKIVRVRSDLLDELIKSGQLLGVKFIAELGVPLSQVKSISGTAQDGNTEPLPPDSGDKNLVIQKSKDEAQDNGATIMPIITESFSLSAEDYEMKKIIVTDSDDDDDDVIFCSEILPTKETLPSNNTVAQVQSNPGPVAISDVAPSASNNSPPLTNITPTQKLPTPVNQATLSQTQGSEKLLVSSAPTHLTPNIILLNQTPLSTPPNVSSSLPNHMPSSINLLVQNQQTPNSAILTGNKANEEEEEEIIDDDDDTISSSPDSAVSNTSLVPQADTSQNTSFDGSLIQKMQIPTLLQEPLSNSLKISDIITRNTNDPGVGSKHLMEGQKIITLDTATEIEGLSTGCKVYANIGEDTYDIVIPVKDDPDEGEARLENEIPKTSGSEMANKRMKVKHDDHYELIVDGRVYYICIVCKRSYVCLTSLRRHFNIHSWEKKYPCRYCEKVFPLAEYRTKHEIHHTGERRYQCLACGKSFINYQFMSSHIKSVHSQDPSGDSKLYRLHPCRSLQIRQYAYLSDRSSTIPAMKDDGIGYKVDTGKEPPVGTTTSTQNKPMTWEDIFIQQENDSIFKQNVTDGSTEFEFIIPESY
Assay: co-IP; 293T cells co-transfected with HA-tagged CTNND1 and Myc-tagged Kaiso; immunoprecipitation and subsequent immunoblot

binding: binds
B1: HA-tagged CTNND1 (protein, UniProt O60716 1-968)
chain: MDDSEVESTASILASVKEQEAQFEKLTRALEEERRHVSAQLERVRVSPQDANPLMANGTLTRRHQNGRFVGDADLERQKFSDLKLNGPQDHSHLLYSTIPRMQEPGQIVETYTEEDPEGAMSVVSVETSDDGTTRRTETTVKKVVKTVTTRTVQPVAMGPDGLPVDASSVSNNYIQTLGRDFRKNGNGGPGPYVGQAGTATLPRNFHYPPDGYSRHYEDGYPGGSDNYGSLSRVTRIEERYRPSMEGYRAPSRQDVYGPQPQVRVGGSSVDLHRFHPEPYGLEDDQRSMGYDDLDYGMMSDYGTARRTGTPSDPRRRLRSYEDMIGEEVPSDQYYWAPLAQHERGSLASLDSLRKGGPPPPNWRQPELPEVIAMLGFRLDAVKSNAAAYLQHLCYRNDKVKTDVRKLKGIPVLVGLLDHPKKEVHLGACGALKNISFGRDQDNKIAIKNCDGVPALVRLLRKARDMDLTEVITGTLWNLSSHDSIKMEIVDHALHALTDEVIIPHSGWEREPNEDCKPRHIEWESVLTNTAGCLRNVSSERSEARRKLRECDGLVDALIFIVQAEIGQKDSDSKLVENCVCLLRNLSYQVHREIPQAERYQEAAPNVANNTGPHAASCFGAKKGKDEWFSRGKKPIEDPANDTVDFPKRTSPARGYELLFQPEVVRIYISLLKESKTPAILEASAGAIQNLCAGRWTYGRYIRSALRQEKALSAIADLLTNEHERVVKAASGALRNLAVDARNKELIGKHAIPNLVKNLPGGQQNSSWNFSEDTVISILNTINEVIAENLEAAKKLRETQGIEKLVLINKSGNRSEKEVRAAALVLQTIWGYKELRKPLEKEGWKKSDFQVNLNNASRSQSSHSYDDSTLPLIDRNQKSDKKPDREEIQMSNMGSNTKSLDNNYSTPNERGDHNRTLDRSGDLGDMEPLKGTTPLMQDEGQESLEEELDVLVLDDEGGQVSYPSMQKI
